From PubChem BioAssay AID2551 (National Center for Advancing Translational Sciences (NCATS), 2010)
Out of some 310,000 compounds screened, about 17,000 (5.5%) were called active. The inconclusive results got no clear call from the source; some entries with a clear call stand among them for comparison. Calls follow the shape of the dose curve; as a rule, active = well fitted inhibition curve with a large enough effect; inconclusive = small, poorly fitted or top-dose-only effect, or effect the other way; inactive = no such curve, though single readings can be large or run the other way. Where the call is inconclusive, the potency comes from a doubtful curve fit.
% is scaled to controls: 0 for no effect and ±100 for the full control effect; potency is read from the fitted curve at half-maximal effect.
Also: nearly all actives have a fitted effect of over 60% in size.

Sequences of proteins named here, by UniProt entry; tags and fusion partners are left off. A change or cut given only in a name is not applied to a line headed by its entry.
UniProt P51450: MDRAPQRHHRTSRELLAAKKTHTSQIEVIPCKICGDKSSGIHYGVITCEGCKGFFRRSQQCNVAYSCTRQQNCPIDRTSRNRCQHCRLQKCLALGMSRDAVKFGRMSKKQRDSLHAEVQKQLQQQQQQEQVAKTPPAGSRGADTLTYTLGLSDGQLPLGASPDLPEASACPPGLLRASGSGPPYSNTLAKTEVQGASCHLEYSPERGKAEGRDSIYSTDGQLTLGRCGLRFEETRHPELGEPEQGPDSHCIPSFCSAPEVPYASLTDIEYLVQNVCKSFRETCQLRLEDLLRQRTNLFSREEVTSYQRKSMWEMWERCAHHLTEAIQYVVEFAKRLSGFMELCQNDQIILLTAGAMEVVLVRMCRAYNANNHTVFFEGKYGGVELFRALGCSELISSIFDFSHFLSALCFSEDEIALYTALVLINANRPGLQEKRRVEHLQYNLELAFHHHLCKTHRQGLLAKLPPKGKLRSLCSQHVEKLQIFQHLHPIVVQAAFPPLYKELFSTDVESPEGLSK

What follows are compounds tested against Nuclear receptor ROR-gamma (Mus musculus) (UniProt P51450) (assay: qHTS for inhibitors of ROR gamma transcriptional activity). Conditions: Drosophila S2 Gal4-RORgamma UAS-luciferase reporter, 20 h; activity change, negative = inhibition: at 53.6 µM (top of the series).
Method in brief: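 Compounds are pin-transferred onto Drosophila Schneider cells expressing a copper-inducible Gal4–ROR gamma transactivation domain fusion. After 1 hr, copper sulfate is added to 700 uM final; luciferase is read 20 hr later.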
In the case of `O=C(c1cccc(C(=O)N2CCN(c3ncccn3)CC2)c1)N1CCN(c2ncccn2)CC1`, the “activity change, negative = inhibition” value is reported as inactive: 0.257%. With `O=C(O)CCC(=O)N1N=C(c2ccc(Br)cc2)CC1c1cccc(Br)c1` (configuration not stated) the “activity change, negative = inhibition” value was inactive: 1.42%. In the case of `CC(C(=O)NC1C=CS(=O)(=O)C1)N1C(=O)/C(=C/c2ccc(Cl)cc2)SC1=S` (configuration not stated), the Potency is reported as inconclusive: 31.6 µM [activator, single point]. In the case of `CC(C)N(Cc1cn[nH]c1-c1ccc(-c2ccccc2)cc1)Cc1nccn1C`, the Potency is reported as inconclusive: 35.5 µM [inhibitor, single point]. `CCNc1ccc(S(=O)(=O)N(C)C)cc1NCC(=O)Nc1ccc(F)c(Cl)c1` was tested, and the Potency was inconclusive: 15.8 µM [activator, partial curve]. With `CC1=C([N+](=O)[O-])C(c2ccccc2Cl)NC(=O)N1` (configuration not stated) the activity change, negative = inhibition was inactive: -16.1% [at 1.91 µM]. In the case of `Cc1cc(C)c(NC(=O)CSc2ccc(-c3cccnc3)nn2)c(C)c1`, the Potency is reported as inconclusive: 35.5 µM [activator, single point]. For `O=C(Nc1nc(-c2cccs2)cs1)c1ccc(Cl)s1`, the Potency was inconclusive: 0.158 µM [inhibitor, full curve, poor fit]. For `O=C(N/N=C/c1sc(N2CCOCC2)nc1-c1ccccc1)c1ccccc1O`, the Potency was active: 2.24 µM. In the case of `Cc1ccc(C(=O)N2CCN(c3ccc(NC(=S)NC(=O)c4cccs4)cc3)CC2)cc1`, the Potency is reported as active: 7.08 µM. With `CCOCCCn1c(=S)[nH]c2cc(C(=O)NCCc3ccccc3)ccc2c1=O` the Potency was inconclusive: 35.5 µM [inhibitor, single point]. For `COc1cc(NC(=O)C2=CC(c3ccc(C)cc3)=NS(=O)(=O)N2C)cc(OC)c1OC`, the Potency was inconclusive: 22.4 µM [activator, partial curve, poor fit]. With `CCn1cc(-c2n[nH]c(=S)n2-c2ccc(C)cc2Br)c(=O)c2ccc(C)nc21` the Potency was inconclusive: 10 µM [inhibitor, partial curve, poor fit]. In the case of `Cc1ccc2nc(NC(=O)c3ccc(S(=O)(=O)N4CCCc5ccccc54)cc3)sc2c1`, the Potency is reported as inconclusive: 7.08 µM [inhibitor, full curve, poor fit]. `COc1ccc(OCC(=O)Nc2ccc3c(c2)nc(CCN2CCC(C)CC2)n3C)cc1` was tested, and the “activity change, negative = inhibition” value was inactive: -6.86%. `O=C1c2ccc3c4c(ccc(c24)C(=O)N1c1cccc(O)c1)C(=O)N(c1cccc(O)c1)C3=O` was tested, and the Potency was inconclusive: 1.12 µM [inhibitor, full curve]. For `CC(CCc1ccccc1)NC(=O)C(=O)Nc1ccccc1` (configuration not stated), the “activity change, negative = inhibition” value was inactive: 23.8%. In the case of `Cc1cccc(C(=O)Nc2ccc(C(=O)/C=C/c3ccncc3)cc2)c1`, the Potency is reported as inconclusive: 35.5 µM [inhibitor, single point]. With `Cn1c(/C=N/c2nc3ccccc3[nH]2)nc2ccccc21` the Potency was active: 17.8 µM. With `O=C(O)c1cccc(CSc2nnc(-c3ccco3)o2)c1` the Potency was inconclusive: 3.16 µM [inhibitor, partial curve, poor fit]. `O=C(CCCSc1nc2ccccc2s1)NC1=NCCS1` was tested, and the Potency was active: 0.891 µM. `C/C(=N\Nc1ccc(S(N)(=O)=O)cc1[N+](=O)[O-])c1ccc2c(c1)OCO2` was tested, and the Potency was inconclusive: 25.1 µM [inhibitor, single point]. `CC(C)c1ccc(-c2cc(C(=O)N3CCOCC3)c3cc(Br)ccc3n2)cc1` was tested, and the Potency was inconclusive: 25.1 µM [activator, single point]. In the case of `CCOC(=O)C1=C(c2ccccc2)NC(SCC(=O)NC2CCCCC2)=C(C#N)C1c1ccco1` (configuration not stated), the Potency is reported as inconclusive: 5.62 µM [activator, single point]. `CCc1ccc2oc(-c3ccc(OC)cc3)cc(=Nc3cccc(C(=O)O)c3)c2c1` was tested, and the Potency was inconclusive: 22.4 µM [inhibitor, single point]. `CN(C)C=Nc1ccc2nc3c(cc2c1)[nH]c1ccccc13` was tested, and the Potency was inconclusive: 11.2 µM [inhibitor, single point]. In the case of `CCOC(=O)C1=C(C)N(c2ccc(C)cc2)C(=O)/C1=C\c1ccc(O)c(OC)c1`, the Potency is reported as inconclusive: 35.5 µM [inhibitor, single point]. `Cc1ncc(CN2CCC(C(=O)Nc3ccc(-n4cccn4)cc3)CC2)s1` was tested, and the “activity change, negative = inhibition” value was inactive: -14.9%. In the case of `S=C(NCc1ccccc1)NN1CCOCC1`, the Potency is reported as inconclusive: 35.5 µM [inhibitor, single point]. In the case of `Cc1ccc(NC(=O)C2CCN(S(=O)(=O)c3ccc4c(c3)NC(=O)C(C)S4)CC2)c(C)c1` (configuration not stated), the Potency is reported as inconclusive: 12.6 µM [activator, partial curve]. With `COc1ccc2c(=O)c(-c3ccccc3)coc2c1` the Potency was inconclusive: 4.47 µM [activator, partial curve, poor fit]. With `COCCN(C(=O)COc1ccc(Cl)cc1)c1nnc(-c2cccnc2)s1` the Potency was inconclusive: 5.62 µM [activator, single point]. In the case of `NS(=O)(=O)c1ccc(CCNC(=O)C2CCN(S(=O)(=O)c3cnc[nH]3)CC2)cc1`, the “activity change, negative = inhibition” value is reported as inactive: -16.4%. `Cc1ccc(CSc2nnc(CCCCCNC(=O)OC(C)(C)C)o2)cc1` was tested, and the Potency was inconclusive: 20 µM [activator, single point]. With `Cc1cccc(N2CCN(C(=O)CNC(=O)c3cccc([N+](=O)[O-])c3)CC2)c1C` the Potency was inconclusive: 35.5 µM [activator, single point]. `C(#Cc1ccccc1)C[N+]1(CC#Cc2cccc3ccccc23)CCOCC1` was tested, and the Potency was inconclusive: 35.5 µM [activator, single point]. With `CCCCOc1ccc(CN(C)c2ncnc(N)n2)cc1` the Potency was inconclusive: 11.2 µM [activator, partial curve]. In the case of `S=C(NCCCN1CCOCC1)Nc1ccc(Cl)cc1Cl`, the “activity change, negative = inhibition” value is reported as inactive: -13.4%. With `O=C(C[n+]1ccc(CCSc2ccc(F)cc2)cc1)c1ccccc1` the Potency was inconclusive: 25.1 µM [inhibitor, single point]. `CCn1ccnc1CN1CCCCC1C(=O)Nc1ccc(Oc2cccnc2)cc1` (configuration not stated) was tested, and the Potency was inconclusive: 8.91 µM [inhibitor, partial curve]. In the case of `Fc1cc(F)c2nc(Nc3nc4cc5c(cc4s3)OCO5)sc2c1`, the Potency is reported as active: 15.8 µM. For `O=C(Oc1c(Cl)cc(Cl)c2cccnc12)c1cccc([N+](=O)[O-])c1`, the Potency was active: 0.282 µM.
